The values below come from PMC4491177, “Co-translational capturing of nascent ribosomal proteins by their dedicated chaperones” (Nature Communications, 2015).

The test has as its target T1, ctRpl10(1–20)-(His)6 (Chaetomium thermophilum).
T1 sequence: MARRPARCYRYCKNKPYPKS
The test can be described thus: pull-down; (His)6-tagged Rpl10 variant and Sqt1 variant co-expressed in E. coli from pETDuet-1; Ni-NTA agarose purification from the soluble extract; 50 mM Tris-HCl (pH 7.5), 200 mM NaCl, 1.5 mM MgCl2, 5% glycerol, 0.1% NP-40, 4 °C; imidazole eluate on SDS-PAGE, Coomassie and western blot. Background: A western blot detects proteins with antibodies after separation by electrophoresis.

These are yes or no findings as the source states them, for the method shown. In cells and extracts the contact can be indirect. Binding can be weak; no strength is given. Tags and fused reporters may be left off the sequences shown.

For the substance ctSqt1 (Chaetomium thermophilum), the binding entry is recorded as “binds”.
